The other results are listed elsewhere or left out. These are further read-outs of the screen, such as a control signal, another cell line or another target. No call is given for them. The list favours compounds with an active or inconclusive main result. The note in brackets gives the kind of curve behind each potency; many fits are weak.
Assay: qHTS Assay for Modulators of Lamin A Splicing
Settings: HeLa LMNA splicing GFP/RFP minigene ratio, 48 h
In short: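 S3 HeLa cells stably expressing lamin A-EGFP splicing minigene plus DsRed2, 600 cells/well, 48 h compound exposure at 37C. Laser-scanning cytometry; analysed as GFP (500-530 nm)/RFP (575-640 nm) total intensity ratio; 0.5% DMSO vehicle.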

[1] = measured here: RFP viability control channel
[2] = measured here: GFP splicing reporter channel

SMILES | AC50 [1] | AC50 [2]
Cc1ccc(C(=O)CC(=O)COc2ccc(Cl)cc2)cc1 | 12.6 µM [rising, single point] | –
COC(=O)c1ccc(NC(=O)CSc2nnc(COc3ccc4c(c3)CCCC4)o2)cc1 | 0.00501 µM [falling, full curve, poor fit] | –
COc1ccc(C(=O)C[n+]2ccc3c(c2)nc(-c2ccccc2)n3C)cc1 | 17.8 µM [rising, partial curve] | 12.6 µM [rising, partial curve]
Cc1c(NC(=O)OCCSc2nc(N(C)C)nc(N(C)C)n2)sc(=S)n1C | 31.6 µM [rising, single point] | 20 µM [rising, single point]
COc1ccc(OC)c(NC(=O)CSC2=C(C#N)C(c3ccco3)C3=C(CCCC3=O)N2)c1 (configuration not stated) | 35.5 µM [rising, single point] | –
O=C(CNCc1cccnc1)Nc1cc(C(F)(F)F)ccc1N1CCOCC1 | 0.0112 µM [falling, full curve, poor fit] | –
Cc1csc(SCC(=O)Nc2sc3c(c2C#N)CCC3)n1 | 35.5 µM [rising, single point] | 35.5 µM [rising, single point]
Cc1ccccc1-n1nnnc1SCc1ncc(-c2ccccc2)o1 | 11.2 µM [rising, single point] | –
CC1(C)NC(=O)N(CCCCOc2cccc(C(F)(F)F)c2)C1=O | 14.1 µM [rising, single point] | 12.6 µM [rising, single point]
c1nc(N2CCC3(CC2)OCCO3)c2c3c(sc2n1)CCCC3 | 14.1 µM [rising, partial curve] | –
CCCCCCCNC1=CC(=O)CC(c2ccccc2)C1 (configuration not stated) | 20 µM [rising, single point] | –
Cc1[nH]nc2ncc(C(=O)c3ccccc3O)cc12 | – | 8.91 µM [rising, partial curve]
Cc1ccc(NC(=S)NN(C)c2cc(C)nc(C)n2)cc1 | 31.6 µM [rising, single point] | 35.5 µM [rising, single point]
CCOC(=O)CSc1c(-c2cccs2)[nH]c2ccccc12 | 22.4 µM [rising, single point] | 14.1 µM [rising, partial curve]
O=C(Nc1nc2ccc(Cl)cc2s1)[C@@H]1CCCN1C(=O)c1cccs1 | 35.5 µM [rising, single point] | –
O=C1CCC(/C=C/c2ccccc2)=NN1Cc1ccc(Cl)c(Cl)c1 | 31.6 µM [rising, single point] | –
CCN1/C(=C/c2cc[n+](C)cc2)C=Cc2cc(C)ccc21 | 2.82 µM [rising, full curve] | 2.51 µM [rising, full curve]
COc1ccc(CCNC(=O)CSc2nnc(-c3ccc(F)cc3)o2)cc1OC | 12.6 µM [rising, single point] | 7.08 µM [rising, partial curve]
CC(C)(C)c1cc(=O)n2c(nc3ccccc32)[nH]1 | 17.8 µM [rising, partial curve] | 14.1 µM [rising, partial curve]
Cc1oc2cc3c(C(=O)N4CCCCC4)c(C)oc3cc2c1C(=O)N1CCCCC1 | 5.01 µM [rising, partial curve, poor fit] | –
Cc1ccc(-n2c(C)cc(C(=O)COc3c(CO)cc(F)cc3CO)c2C)cc1C | – | 35.5 µM [rising, single point]
O=C(NCCc1csc(-c2ccc(C(F)(F)F)cc2)n1)C(=O)Nc1cc(F)ccc1F | 2.51 µM [falling, partial curve, poor fit] | –
COc1ccc(NC(=O)CCCn2c(=O)c3cccn3c3ccccc32)c(OC)c1 | – | 0.02 µM [rising, full curve, poor fit]
CC(NCc1ccc(-c2ccccc2)cc1)C(O)c1ccccc1 (configuration not stated) | 8.91 µM [rising, partial curve, poor fit] | –
COc1ccc(-c2[nH]ncc2CNC(C)c2cn(C)nc2C)c(F)c1 (configuration not stated) | – | 0.447 µM [falling, single point]
CCOC(=O)c1c(C)[nH]c(CCC(=O)NCCCN2CCN(c3cc(Cl)ccc3C)CC2)c1C | 11.2 µM [falling, partial curve] | 11.2 µM [falling, partial curve, poor fit]
Cc1c(CCNC(=O)Cc2ccc(F)cc2)sc2nc(-c3ccc(F)cc3)nn12 | 0.0447 µM [falling, partial curve, poor fit] | 0.0562 µM [falling, full curve]

By substructure: the entries above containing a cyano group (2)
SMILES | AC50 [1] | AC50 [2]
COc1ccc(OC)c(NC(=O)CSC2=C(C#N)C(c3ccco3)C3=C(CCCC3=O)N2)c1 (configuration not stated) | 35.5 µM [rising, single point] | –
Cc1csc(SCC(=O)Nc2sc3c(c2C#N)CCC3)n1 | 35.5 µM [rising, single point] | 35.5 µM [rising, single point]

Carrying on:

SMILES | AC50 [1] | AC50 [2]
O=C(/C=C/c1cccs1)N1CCN(Cc2ccc3c(c2)OCO3)CC1 | – | 14.1 µM [rising, single point]
CCOc1ccc(C(=O)Nc2cccc(OCc3cc(=O)n4ccccc4n3)c2)cc1 | 6.31 µM [falling, single point] | –
CCOC(=O)Cc1c(Cl)c2ccccc2[nH]c1=O | 25.1 µM [falling, partial curve, poor fit] | 35.5 µM [falling, partial curve]
COc1cc2c(cc1NC(=O)c1ccccc1F)CCCC2 | 35.5 µM [rising, single point] | 25.1 µM [rising, single point]
COc1cc(CNn2c(C)n[nH]c2=S)cc(Cl)c1OCc1ccccc1 | 5.62 µM [falling, single point] | 5.62 µM [falling, single point]
CCCCNC(=O)c1onc(CCl)c1C(=O)OC | 25.1 µM [falling, single point] | 15.8 µM [falling, single point]
Cc1ccccc1NS(=O)(=O)c1nnc(NC(=O)c2ccc(Cl)cc2)s1 | – | 0.282 µM [falling, full curve, poor fit]
Cc1ccc(C)c(C(=O)COc2ccc(C)nc2[N+](=O)[O-])c1 | 12.6 µM [falling, partial curve, poor fit] | 35.5 µM [falling, single point]
CCOC(=O)c1cccc(NC(=O)Cn2c(CC(=O)NC)nc3ccccc32)c1 | 35.5 µM [rising, single point] | 12.6 µM [rising, partial curve, poor fit]
Cc1ccc(C(=O)C(OC(=O)c2c(C)cc(=O)oc2C)c2ccccc2)cc1 (configuration not stated) | 11.2 µM [rising, single point] | 11.2 µM [rising, single point]
O=c1c2ccccc2nnn1CSc1ncnc2ccccc12 | 22.4 µM [falling, partial curve] | 8.91 µM [falling, partial curve]
O=C(O)c1ccccc1OC(=O)C12CC3CC(CC(C3)C1)C2 | – | 0.562 µM [falling, full curve, poor fit]
O=C(NCc1cccnc1)c1cc(Sc2ccc(F)cc2F)nc2ccccc12 | 28.2 µM [rising, partial curve] | 25.1 µM [rising, single point]
Cc1ccc(C)n1-c1c(C(=O)NCC(C)c2ccccc2)sc2ncccc12 (configuration not stated) | 35.5 µM [rising, single point] | –
COc1ccc(Br)cc1/C=C/C(=O)Nc1ccc(C)cc1 | 17.8 µM [rising, partial curve] | –
CCc1ccccc1N(C)C(=O)CCc1nc(-c2ccc(C)cc2)no1 | 17.8 µM [rising, single point] | –
CCOc1ccc(CCNc2cc(C)nc3ncnn23)cc1OCC | 14.1 µM [rising, partial curve] | –
CCc1ccc(/C=C/C(=O)C2C(=O)c3ccccc3C2=O)cc1 | 35.5 µM [falling, single point] | 22.4 µM [falling, single point]
COc1ccccc1C1C2=C(COC2=O)Nc2cc3c(cc21)OCO3 (configuration not stated) | 1.26 µM [falling, full curve] | 0.631 µM [falling, full curve]
O=C(Nc1ccc(C(F)(F)F)cc1)c1cc(S(=O)(=O)NC2CCCCC2)ccc1F | 22.4 µM [falling, partial curve] | 22.4 µM [falling, single point]
O=C(Cc1ccccc1)N1CCN=C1SCc1cccc([N+](=O)[O-])c1 | 5.62 µM [rising, partial curve] | 0.891 µM [rising, full curve, poor fit]
Cc1cc(C)c(C#N)c(SCc2ccccc2C)n1 | 35.5 µM [rising, single point] | 25.1 µM [rising, partial curve, poor fit]
O=C(Nc1ccccc1Cl)c1ccccc1Oc1ccc(C(F)(F)F)cc1[N+](=O)[O-] | 0.0355 µM [falling, single point] | 0.0316 µM [falling, single point]
O=C(N/N=C/c1ccncc1)c1cccc(N/N=C/c2ccncc2)c1 | 35.5 µM [rising, single point] | –
CCOc1ccc(OCc2nnc(SCC(=O)NC3CCS(=O)(=O)C3)n2-c2ccc(Cl)cc2)cc1 (configuration not stated) | – | 20 µM [rising, single point]
CC(=O)c1c(C)[nH]c(C(=O)OCCCCN2C(=O)c3ccccc3C2=O)c1C | 0.562 µM [rising, full curve] | 0.355 µM [rising, full curve]
Cc1c(Br)c([N+](=O)[O-])nn1CC(=O)Nc1ccc(Cc2ccncc2)cc1 | 14.1 µM [rising, partial curve] | 7.94 µM [rising, partial curve]

— PubChem BioAssay AID1487 (National Center for Advancing Translational Sciences (NCATS), 2009)
